Some of the results follow. The main result of the screen is listed elsewhere. These columns were measured beside it and carry no call. The list favours compounds with an active or inconclusive main result. Potencies come from curve fits of mixed quality, noted in brackets.
Experiment: qHTS Assay for Lipid Storage Modulators in Drosophila S3 Cells;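 for cell number change: cells counted by Cell Tracker Red CMTPX staining in the red channel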
Conditions: BODIPY lipid droplet fluorescence, 18-24 h; for cell number change: measured here: cell count max response, cells fed with added oleic acid
In short: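 Drosophila S3 cells loaded with oleic acid (400 uM, as added) and compounds at several concentrations; lipid droplets imaged by 488-nm laser-scanning cytometry, 500–530 nm intensity and object ratio to cell channel. Percent activity normalized to 20 uM Triacsin C.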

[1] = measured here: lipid fluorescence (Fed channel) AC50, cells fed with added oleic acid
[2] = measured here: cell number channel AC50, cells fed with added oleic acid

SMILES | cell number change [%] | AC50 [1] | AC50 [2]
Cc1ccsc1C1Nc2ccccc2-c2nc3ccccc3n21 (configuration not stated) | 12.7 | 29.1 µM [rising, single point] | 
COc1ccccc1N1CCN(C(=O)CCNS(=O)(=O)c2cc(Br)cnc2N)CC1 |  | 32.6 µM [falling, single point] | 
CC1CCC(NC(=O)Cn2ncc3ccccc32)CC1 (configuration not stated) | 13.7 | 32.6 µM [falling, partial curve, poor fit] | 
O=C(O)CCS(=O)(=O)c1cccc2cccnc12 | -89 |  | 29.1 µM [falling, single point]
COc1ccc(NC(=O)CN2C(=O)NC(C)(c3ccc(C)cc3)C2=O)c([N+](=O)[O-])c1 (configuration not stated) | -4.27 |  | 
CN(c1ccc(C(=O)O)cc1)S(=O)(=O)c1ccc(Cl)cc1 | -18.9 | 2.06 µM [falling, full curve] | 0.13 µM [falling, full curve]
C#Cc1cccc(C(=O)NC2CCCN(C3Cc4ccccc4C3)C2)c1 (configuration not stated) | -3.67 | 6.51 µM [rising, single point] | 
Clc1cccc(Cl)c1COn1nnc2ccccc21 | 124 | 20.6 µM [rising, partial curve] | 16.4 µM [rising, partial curve]
CCN(Cc1ccccc1)C(=O)Cn1c(C(C)O)nc2ccccc21 (configuration not stated) | 9.91 | 6.51 µM [rising, partial curve, poor fit] | 2.59 µM [rising, partial curve, poor fit]
COc1ccc(NC(=O)CCNC(=O)c2ccco2)c(OC)c1 | 39.1 |  | 
CCCCN1C(=O)C(=O)N(CC(=O)Nc2cc(Cl)ccc2OC)C1=O | -34.3 | 8.2 µM [falling, partial curve] | 8.2 µM [falling, partial curve, poor fit]
CCCC1S/C(=N/N=C/c2ccc(C)cc2)N(Cc2ccc(OC)cc2)C1=O (configuration not stated) |  | 4.11 µM [rising, full curve] | 3.26 µM [rising, partial curve, poor fit]
Cc1cc(C)c2[nH]c(=S)cc(C)c2c1 | 24.1 |  | 
CC(NC(=O)Nc1ncccn1)(C(F)(F)F)C(F)(F)F | 4.63 | 0.13 µM [rising, full curve, poor fit] | 
CCCOc1c(Br)cc(C(=O)OCC(=O)NC2CC2)cc1OC |  | 2.31 µM [rising, partial curve] | 
CC(=O)N1CCN(C(=O)c2ccc(-c3cccc(C(F)(F)F)c3)o2)CC1 | 42 | 7.31 µM [rising, partial curve] | 4.61 µM [rising, full curve]

Quoted from the listing (2 entries):
SMILES | cell number change [%] | AC50 [1] | AC50 [2]
CCCC1S/C(=N/N=C/c2ccc(C)cc2)N(Cc2ccc(OC)cc2)C1=O (configuration not stated) |  | 4.11 µM [rising, full curve] | 3.26 µM [rising, partial curve, poor fit]
Cc1cc(C)c2[nH]c(=S)cc(C)c2c1 | 24.1 |  | 
